# Experimental data reported in the supplement of paper PMC8728848.
# Some of the results follow.
# B1: CD34 (Homo sapiens), P28906 (protein)
# chain: MGSSHHHHHHSSGLVPRGSHMSTSLATSPTKPYTSSSPILSDIKAEIKCSGIREVKLTQGICLEQNKTSSCAEFKKDRGEGLARVLCGEEQADADAGAQVCSLLLAQSEVRPQCLLLVLANRTEISSKLQLMKKHQSDLKKLGILDFTEQDVASHQSYSQKT
# Columns and labels:
# Assay in all cases: glycan array binding signal (z-score within array); higher = stronger binding
# Details in all cases: glycan notation: IUPAC condensed, linker removed
# [1] = biological target: Gal(b1-3)GlcNAc(b1-6)GalNAc
# How it was run: (§1)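 The Consortium for Functional Glycomics database supplied 3228 glycan arrays, of which those lacking an available protein sequence were dropped. The binding signal, a within-array Z-score, was averaged across arrays of the same protein sequence and across linkers. Negative scores can be read as non-binding.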
# [2] = biological target: Gal(b1-3)GlcNAc(b1-6)[Gal(b1-3)]GalNAc
# How it was run: as §1
# [3] = biological target: Gal(b1-3)GlcNAc6S
# How it was run: as §1
# [4] = biological target: Gal(b1-3)[Fuc(a1-4)]GlcNAc
# How it was run: as §1
# [5] = biological target: Gal(b1-3)[Fuc(a1-4)]GlcNAc(b1-2)Man
# How it was run: as §1
# [6] = biological target: Gal(b1-3)[Fuc(a1-4)]GlcNAc(b1-2)Man(a1-3)[Gal(b1-3)[Fuc(a1-4)]GlcNAc(b1-2)Man(a1-6)]Man(b1-4)GlcNAc(b1-4)[Fuc(a1-6)]GlcNAc
# How it was run: as §1
# [7] = biological target: Gal(b1-3)[Fuc(a1-4)]GlcNAc(b1-3)Gal(b1-3)[Fuc(a1-4)]GlcNAc
# How it was run: as §1
# [8] = biological target: Gal(b1-3)[Fuc(a1-4)]GlcNAc(b1-3)Gal(b1-4)[Fuc(a1-3)]GlcNAc
# How it was run: as §1
# [9] = biological target: Gal(b1-3)[Fuc(a1-4)]GlcNAc(b1-6)GalNAc
# How it was run: as §1
# [10] = biological target: Gal(b1-3)[GlcNAc(b1-6)]GalNAc
# How it was run: as §1
# [11] = biological target: Gal(b1-3)[Neu5Ac(a2-6)]GalNAc
# How it was run: as §1
# [12] = biological target: Gal(b1-3)[Neu5Ac(a2-6)]GlcNAc(b1-4)Gal(b1-4)Glc
# How it was run: as §1
# [13] = biological target: Gal(b1-3)[Neu5Ac(b2-6)]GalNAc
# How it was run: as §1
# [14] = biological target: Gal(b1-4)Gal
# How it was run: as §1
# [15] = biological target: Gal(b1-4)GalNAc(a1-3)[Fuc(a1-2)]Gal(b1-4)GlcNAc
# How it was run: as §1
# [16] = biological target: Gal(b1-4)GalNAc(b1-3)[Fuc(a1-2)]Gal(b1-4)GlcNAc
# How it was run: as §1
# [17] = biological target: Gal(b1-4)Glc
# How it was run: as §1
# [18] = biological target: Gal(b1-4)Glc6S
# How it was run: as §1
# [19] = biological target: Gal(b1-4)GlcNAc
# How it was run: as §1
# [20] = biological target: Gal(b1-4)GlcNAc(a1-6)Gal(b1-4)GlcNAc
# How it was run: as §1
# [21] = biological target: Gal(b1-4)GlcNAc(b1-2)Man
# How it was run: as §1
# [22] = biological target: Gal(b1-4)GlcNAc(b1-2)Man(a1-3)Man(b1-4)GlcNAc(b1-4)GlcNAc
# How it was run: as §1
# [23] = biological target: Gal(b1-4)GlcNAc(b1-2)Man(a1-3)[Gal(b1-4)GlcNAc(b1-2)Man(a1-6)]Man(b1-4)GlcNAc(b1-4)GlcNAc
# How it was run: as §1
# [24] = biological target: Gal(b1-4)GlcNAc(b1-2)Man(a1-3)[Gal(b1-4)GlcNAc(b1-2)Man(a1-6)]Man(b1-4)GlcNAc(b1-4)[Fuc(a1-6)]GlcNAc
# How it was run: as §1
# [25] = biological target: Gal(b1-4)GlcNAc(b1-2)Man(a1-3)[Gal(b1-4)GlcNAc(b1-2)Man(a1-6)][Gal(b1-4)GlcNAc(b1-4)]Man(b1-4)GlcNAc(b1-4)[Fuc(a1-6)]GlcNAc
# How it was run: as §1
# [26] = biological target: Gal(b1-4)GlcNAc(b1-2)Man(a1-3)[Gal(b1-4)GlcNAc(b1-2)Man(a1-6)][GlcNAc(b1-4)]Man(b1-4)GlcNAc(b1-4)[Fuc(a1-6)]GlcNAc
# How it was run: as §1
# [27] = biological target: Gal(b1-4)GlcNAc(b1-2)Man(a1-3)[GlcNAc(b1-2)Man(a1-6)]Man(b1-4)GlcNAc(b1-4)GlcNAc
# How it was run: as §1
# [28] = biological target: Gal(b1-4)GlcNAc(b1-2)Man(a1-3)[GlcNAc(b1-4)][Gal(b1-4)GlcNAc(b1-2)Man(a1-6)]Man(b1-4)GlcNAc(b1-4)GlcNAc
# How it was run: as §1
# [29] = biological target: Gal(b1-4)GlcNAc(b1-2)Man(a1-3)[Man(a1-6)]Man(b1-4)GlcNAc(b1-4)GlcNAc
# How it was run: as §1
# [30] = biological target: Gal(b1-4)GlcNAc(b1-2)Man(a1-6)Man(b1-4)GlcNAc(b1-4)GlcNAc
# How it was run: as §1
# [31] = biological target: Gal(b1-4)GlcNAc(b1-2)Man(a1-6)[GlcNAc(b1-2)Man(a1-3)]Man(b1-4)GlcNAc(b1-4)GlcNAc
# How it was run: as §1
# [32] = biological target: Gal(b1-4)GlcNAc(b1-2)Man(a1-6)[Man(a1-3)]Man(b1-4)GlcNAc(b1-4)GlcNAc
# How it was run: as §1
# [33] = biological target: Gal(b1-4)GlcNAc(b1-2)[Gal(b1-4)GlcNAc(b1-4)]Man(a1-3)[Gal(b1-4)GlcNAc(b1-2)Man(a1-6)]Man(b1-4)GlcNAc(b1-4)GlcNAc
# How it was run: as §1
# [34] = biological target: Gal(b1-4)GlcNAc(b1-2)[Gal(b1-4)GlcNAc(b1-4)]Man(a1-3)[Gal(b1-4)GlcNAc(b1-2)[Gal(b1-4)GlcNAc(b1-6)]Man(a1-6)]Man(b1-4)GlcNAc(b1-4)GlcNAc
# How it was run: as §1
# [35] = biological target: Gal(b1-4)GlcNAc(b1-2)[Gal(b1-4)GlcNAc(b1-4)]Man(a1-3)[GlcNAc(b1-4)][Gal(b1-4)GlcNAc(b1-2)Man(a1-6)]Man(b1-4)GlcNAc(b1-4)GlcNAc
# How it was run: as §1
# [36] = biological target: Gal(b1-4)GlcNAc(b1-2)[Gal(b1-4)GlcNAc(b1-4)]Man(a1-3)[GlcNAc(b1-4)][Gal(b1-4)GlcNAc(b1-2)[Gal(b1-4)GlcNAc(b1-6)]Man(a1-6)]Man(b1-4)GlcNAc(b1-4)GlcNAc
# How it was run: as §1
# [37] = biological target: Gal(b1-4)GlcNAc(b1-2)[Gal(b1-4)GlcNAc(b1-6)]Man(a1-6)[Gal(b1-4)GlcNAc(b1-2)Man(a1-3)]Man(b1-4)GlcNAc(b1-4)GlcNAc
# How it was run: as §1
# [38] = biological target: Gal(b1-4)GlcNAc(b1-2)[Gal(b1-4)GlcNAc(b1-6)]Man(a1-6)[Gal(b1-4)GlcNAc(b1-2)Man(a1-3)]Man(b1-4)GlcNAc(b1-4)[Fuc(a1-6)]GlcNAc
# How it was run: as §1
# [39] = biological target: Gal(b1-4)GlcNAc(b1-2)[Gal(b1-4)GlcNAc(b1-6)]Man(a1-6)[GlcNAc(b1-4)][Gal(b1-4)GlcNAc(b1-2)Man(a1-3)]Man(b1-4)GlcNAc(b1-4)GlcNAc
# How it was run: as §1
# [40] = biological target: Gal(b1-4)GlcNAc(b1-2)[Gal(b1-4)GlcNAc(b1-6)]Man(a1-6)[GlcNAc(b1-4)][Gal(b1-4)GlcNAc(b1-2)[Gal(b1-4)GlcNAc(b1-4)]Man(a1-3)]Man(b1-4)GlcNAc(b1-4)[Fuc(a1-6)]GlcNAc
# How it was run: as §1
# [41] = biological target: Gal(b1-4)GlcNAc(b1-3)Gal(b1-3)GalNAc
# How it was run: as §1
# [42] = biological target: Gal(b1-4)GlcNAc(b1-3)Gal(b1-3)GlcNAc
# How it was run: as §1
# [43] = biological target: Gal(b1-4)GlcNAc(b1-3)Gal(b1-4)Glc
# How it was run: as §1
# [44] = biological target: Gal(b1-4)GlcNAc(b1-3)Gal(b1-4)GlcNAc
# How it was run: as §1
# [45] = biological target: Gal(b1-4)GlcNAc(b1-3)Gal(b1-4)GlcNAc(b1-2)Man(a1-3)[Gal(b1-4)GlcNAc(b1-3)Gal(b1-4)GlcNAc(b1-2)Man(a1-6)]Man(b1-4)GlcNAc(b1-4)GlcNAc
# How it was run: as §1
binder,measurement,setting,value
B1,glycan array binding signal (z-score),[1],0.565
same,glycan array binding signal (z-score),[2],-0.247
same,glycan array binding signal (z-score),[3],0.292
same,glycan array binding signal (z-score),[4],-0.182
same,glycan array binding signal (z-score),[5],0.136
same,glycan array binding signal (z-score),[6],-0.104
same,glycan array binding signal (z-score),[7],-1.06
same,glycan array binding signal (z-score),[8],-0.356
same,glycan array binding signal (z-score),[9],0.092
same,glycan array binding signal (z-score),[10],-0.939
same,glycan array binding signal (z-score),[11],-0.495
same,glycan array binding signal (z-score),[12],-0.373
same,glycan array binding signal (z-score),[13],-0.628
same,glycan array binding signal (z-score),[14],0.236
same,glycan array binding signal (z-score),[15],0.152
same,glycan array binding signal (z-score),[16],-0.791
same,glycan array binding signal (z-score),[17],-0.261
same,glycan array binding signal (z-score),[18],0.445
same,glycan array binding signal (z-score),[19],0.128
same,glycan array binding signal (z-score),[20],0.103
same,glycan array binding signal (z-score),[21],1.38
same,glycan array binding signal (z-score),[22],0.649
same,glycan array binding signal (z-score),[23],-0.847
same,glycan array binding signal (z-score),[24],-0.772
same,glycan array binding signal (z-score),[25],-1
same,glycan array binding signal (z-score),[26],-0.754
same,glycan array binding signal (z-score),[27],-1.28
same,glycan array binding signal (z-score),[28],-0.579
same,glycan array binding signal (z-score),[29],-0.73
same,glycan array binding signal (z-score),[30],0.031
same,glycan array binding signal (z-score),[31],-0.244
same,glycan array binding signal (z-score),[32],0.744
same,glycan array binding signal (z-score),[33],0.015
same,glycan array binding signal (z-score),[34],-1.26
same,glycan array binding signal (z-score),[35],-0.374
same,glycan array binding signal (z-score),[36],-0.897
same,glycan array binding signal (z-score),[37],-0.699
same,glycan array binding signal (z-score),[38],0.06
same,glycan array binding signal (z-score),[39],-0.361
same,glycan array binding signal (z-score),[40],-1.22
same,glycan array binding signal (z-score),[41],-0.267
same,glycan array binding signal (z-score),[42],-0.177
same,glycan array binding signal (z-score),[43],-0.408
same,glycan array binding signal (z-score),[44],-0.183
same,glycan array binding signal (z-score),[45],0.765

# Reprinted at random: two entries already listed
binder,measurement,setting,value
B1,glycan array binding signal (z-score),[7],-1.06
same,glycan array binding signal (z-score),[45],0.765
